These are yes or no findings as the source states them, for the method shown. Binding seen in cells or lysates may run through a third protein. Some results given as binding are weak or reduced against the parent protein; the word gives no strength. Tags and fused reporters may be left off the sequences shown.
Target: T1, myc-tagged ATL1 (Atlastin-1) (mouse) (UniProt Q8BH66)
T1 sequence: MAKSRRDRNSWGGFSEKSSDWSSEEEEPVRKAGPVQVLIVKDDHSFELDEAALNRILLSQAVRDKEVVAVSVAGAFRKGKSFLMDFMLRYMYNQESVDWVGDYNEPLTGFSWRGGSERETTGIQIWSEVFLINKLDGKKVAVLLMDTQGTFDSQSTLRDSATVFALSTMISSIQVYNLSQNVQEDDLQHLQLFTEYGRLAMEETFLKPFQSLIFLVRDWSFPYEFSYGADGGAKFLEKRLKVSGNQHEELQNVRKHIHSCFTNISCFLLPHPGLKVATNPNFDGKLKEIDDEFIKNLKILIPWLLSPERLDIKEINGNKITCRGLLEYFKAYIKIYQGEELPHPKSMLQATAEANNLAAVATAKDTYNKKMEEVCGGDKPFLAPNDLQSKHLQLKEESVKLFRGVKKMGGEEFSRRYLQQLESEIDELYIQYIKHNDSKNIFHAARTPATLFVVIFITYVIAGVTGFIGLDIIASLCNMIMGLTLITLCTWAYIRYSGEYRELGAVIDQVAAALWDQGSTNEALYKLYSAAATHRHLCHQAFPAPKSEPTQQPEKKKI
Test: co-IP; COS-1 cells transfected with myc-tagged Atl1 and HA-tagged Vcp for 24 h; lysis in 50 mM Tris pH 7.4, 1% Triton X-100; immunoprecipitation with Myc antibodies or control non-immune IgG and protein A sepharose, 4 h at 4 °C; washes with 1% Triton X-100, 0.5 M LiCl; immunoblotting

Q: For “HA-tagged VCP (valosin-containing protein) (from UniProt Q01853 1-806)”, which binding is on record?
A: binds

— paper PMC4800434
